Measurements reported in publication PMC12747991.
These are yes or no findings as the source states them, for the method shown. Binding seen in cells or lysates may run through a third protein. Some binding calls cover weakened binding; strength is not graded here.

Amino acid sequences for entries named in this document (tags omitted).
UniProt Q9UBN7: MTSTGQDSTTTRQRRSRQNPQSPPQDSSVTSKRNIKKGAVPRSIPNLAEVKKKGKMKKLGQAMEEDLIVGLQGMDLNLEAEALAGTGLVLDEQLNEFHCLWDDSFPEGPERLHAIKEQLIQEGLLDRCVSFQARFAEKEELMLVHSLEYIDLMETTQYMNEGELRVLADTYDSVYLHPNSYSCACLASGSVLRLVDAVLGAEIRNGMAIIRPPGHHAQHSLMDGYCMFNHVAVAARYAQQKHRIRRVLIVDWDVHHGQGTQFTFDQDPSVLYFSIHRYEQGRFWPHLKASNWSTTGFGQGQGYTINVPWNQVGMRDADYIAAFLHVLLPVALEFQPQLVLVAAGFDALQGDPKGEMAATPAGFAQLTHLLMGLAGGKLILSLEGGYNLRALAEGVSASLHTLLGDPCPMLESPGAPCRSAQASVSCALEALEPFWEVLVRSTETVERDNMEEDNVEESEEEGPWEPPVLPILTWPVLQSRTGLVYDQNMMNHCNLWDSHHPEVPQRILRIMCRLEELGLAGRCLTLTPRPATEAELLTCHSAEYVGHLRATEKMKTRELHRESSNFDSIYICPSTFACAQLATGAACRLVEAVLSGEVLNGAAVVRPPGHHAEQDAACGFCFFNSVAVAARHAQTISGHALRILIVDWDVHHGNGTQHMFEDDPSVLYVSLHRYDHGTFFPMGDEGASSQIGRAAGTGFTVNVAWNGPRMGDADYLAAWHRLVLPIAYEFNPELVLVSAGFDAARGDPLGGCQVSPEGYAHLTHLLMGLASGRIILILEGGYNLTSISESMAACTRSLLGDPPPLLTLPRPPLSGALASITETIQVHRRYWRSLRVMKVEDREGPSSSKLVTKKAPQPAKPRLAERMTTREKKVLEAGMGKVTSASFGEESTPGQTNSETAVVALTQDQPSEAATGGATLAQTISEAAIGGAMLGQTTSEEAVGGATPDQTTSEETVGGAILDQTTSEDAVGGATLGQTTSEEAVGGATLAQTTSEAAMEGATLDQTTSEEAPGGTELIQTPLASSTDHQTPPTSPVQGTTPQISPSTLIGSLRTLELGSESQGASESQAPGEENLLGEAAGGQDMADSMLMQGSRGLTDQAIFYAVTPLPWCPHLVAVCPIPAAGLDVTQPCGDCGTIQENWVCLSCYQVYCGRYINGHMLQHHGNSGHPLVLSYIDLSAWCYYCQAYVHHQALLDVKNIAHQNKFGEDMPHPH

Key:
[1] = target: histone deacetylase 6 (HDAC6) (human (endogenous in cervical cancer cells)) (UniProt Q9UBN7); assay: co-IP; co-IP from cervical cancer cells followed by western blot; cells treated with or without WA (p53-E6AP) or RIC (p53-HDAC6); bait not told
[2] = target: HDAC6 (HEK-293T exogenous expression system) (UniProt Q9UBN7); assay: co-IP; HEK-293T exogenous expression system; with WA (p53-E6AP) or RIC (p53-HDAC6); bait and tags not told

Substance	binding [1]	binding [2]
p53 (from UniProt P04637 1-393)	binds	–
p53 (HEK-293T exogenous expression system) (from UniProt P04637 1-393)	–	binds
